Results published in patent US20200002405A1.
These are yes or no findings as the source states them, for the method shown. For some assays here: Binding can be weak; no strength is given.

Key:
[1] = target: LCMV Wisconsin (WI) strain GP (LCMV, Wisconsin strain); assay: cross-reactivity, immunofluorescence on GP-transfected 293T cells
[2] = target: LCMV Ohio (OH) strain GP (LCMV, Ohio strain); assay: as above
[3] = target: LCMV Massachusetts (MA) strain GP (LCMV, Massachusetts strain); assay: as above
[4] = target: LCMV Rhode Island (RI) strain GP (LCMV, Rhode Island strain); assay: as above
[5] = target: LCMV Wisconsin (WI) strain GP (LCMV, Wisconsin strain); assay: recognition of LCMV GPs, immunofluorescence
[6] = target: LCMV Ohio (OH) strain GP (LCMV, Ohio strain); assay: recognition of LCMV GPs, immunofluorescence
[7] = target: LCMV Massachusetts (MA) strain GP (LCMV, Massachusetts strain); assay: recognition of LCMV GPs, immunofluorescence
[8] = target: LCMV Rhode Island (RI) strain GP (LCMV, Rhode Island strain); assay: recognition of LCMV GPs, immunofluorescence
[9] = target: LCMV Ohio (OH) strain GP (LCMV, Ohio strain); assay: immunofluorescence, 293T cells transfected with GP plasmid
[10] = target: LCMV Rhode Island (RI) strain GP (LCMV, Rhode Island strain); assay: as above
[11] = target: LCMV Wisconsin (WI) strain GP (LCMV, Wisconsin strain); assay: as above
[12] = target: LCMV Massachusetts (MA) strain GP (LCMV, Massachusetts strain); assay: as above

Binder	binding [1]	binding [2]	binding [3]	binding [4]	binding [5]	binding [6]	binding [7]	binding [8]	binding [9]	binding [10]	binding [11]	binding [12]
36.9F (antibody, V domains shown) VH: EVQLVQSGGGLVKAGGSLKLSCGASGFTFSSYSMSWVRQAPGKGLEWVSYISSGGSSIHYADSVKGRFTISRDNAKNSLYLQMKNLRVDDTGRYYCVRDPRSGISGRYGMDVWGQGTTVTVSS VL: DIVMTQSPDSLAVSLGERATINCKSSQTVLFTSYYVAWYQQKPGQPPKLLFSGASSRESGVPDRFSAGGSGTDFYLTINSLQAEDVADYYCQQYHTPPFTFGGGTKLEIRR	binds	binds	binds	binds	binds	binds	binds	binds	–	–	–	–
37.2D (antibody, V domains shown) VH: EVQLVQSGAEVKKPGASVKVSCKASGYTFTKYGISWVRQAPGQGLEWMGWISAFNGYTRYGQRFQGKVTMTTDTSTNTASLEVRTLTSNDTAVYYCARQYPDQYSSSGWPRLFAMDVWGQGTTVIVSP VL: ETTLTQSPATLSVSPGETATLSCRASQNVINNLAWYQQKPGQAPRLLIYGASTRATGIPARFSGSGSGTEFTLTISSMQSEDFAVYYCQQYNDWPRSFGQGTRLDIRR	binds	binds	binds	binds	binds	binds	binds	binds	–	–	–	–
9.8A (antibody, V domains shown) VH: EVQLVQSGGRLVQPGGSLRLSCVASGFTFSSHAMSWVRQAPGKGLEWVSGFSGSSGTTKYADSVKGRFTISRDNSKKTLYLQMNSLRAEDTAVYYCAKGFSPFRGVQFPYFDYWGQGTLVTVSS VL: DIVMTQSPSTLSASVGDRVTITCRASQSIDRWLAWYQQKPGKAPKLLIYQASSLERGVPSRFSGSGSGTEFTLTISSLQPDDFATYYCQQYNGYPLTFGGGTKVEIKR	binds	binds	binds	binds	binds	binds	binds	binds	–	–	–	–
37.7H (antibody, V domains shown) VH: EVQLVQSGGGLVKAGGSLRLSCAASGFTFSTYSMNWIRQAPGKGLEWVASISSRSGSHINYVDSVKGRFTISRDNARDLLYLQMNSLRVDDSALYYCARDRRSGTSPLPLDVWGQGTTVTVFS VL: DQSALTQPASVSGSPGQSITISCTGTGSDIGGYNFVSWYQQYPGKAPKLIIYEVRIRASGVSNRFSGSKSGNTASLTISGLQAEDEADYYCNSYSIHSPWVFGGGTKLTVLR	binds	–	binds	–	binds	–	binds	–	no binding	no binding	–	–
8.11G (antibody, V domains shown) VH: QVQLQESGPGLVKPSETLSLTCSISGVSTRNYYWSWIRQSPGKGLEWIGYIFNIGTTNYNPSLKSRLTISVDTSKNQFSLKITSVTAADTAVYYCASGFEYGDYTFDYWGQGTPVTVSS VL: EIVLTQSPATLSVSPGGRASLSCRASQSIGDKLSWYQQKPGQAPRLVIYGAYTRATDISPRFSGSRSGTDFNLTISRMQSGDFAVYFCQQYENWPRTFGQGTKLEIKR	–	–	–	–	–	–	–	–	no binding	no binding	no binding	no binding
10.4B (antibody) VH: DQVQLVQSGGGVVQPGRSLRVSCVTSGFNFRAYGMHWVRQIPGKGLEWVADIWSAETNRHYADSVKGRFTISRDNSKSTLYLQMNSLRAEDTGVYFCAKARPGYDYVVDLWGQGTLVIVSSASTKGPSVFPLAPCSRSTSGGTAALGCLVKDYFPEPVTVSWNSGALTSGVHTFPAVLQSSGL VL: DEIVLTQSPSSLSASVGDRVTITCRASRDINTYLGWFQQRPGKAPKSLIYGASNLQNGVPSRFSGSGSGTYFTLTINGLQTEDFATYYCQQYSIYPLSLGGGTKADMKRTVAAPSVFIFPPSDEQLKSGTASVVCLLNNFYPREAKVQWKVDNALQSGNSQESVTEQDSKDSTYSLSSTLTLSKADYEKHKVYACEVTHQGLSSP	–	–	–	–	–	–	–	–	no binding	no binding	no binding	no binding
37.2G (antibody, V domains shown) VH: EVQLVESGGGLVKPGGSRRLSCAASGFTFSRDTMTWVRQAPGKGLEWVASISSGSSDINYADSVKGRFTISRDNGKNSLYLHMNSLRADDTAIYYCARDPRSGISGRYGMDVWGQGTTVTVSS VL: DIVLTQSPGTLSLSPGERATLSCRASQSVNSIFLAWYQQKPGQAPRLLIYGASSRATGIPDRFSGSGSGTDFTLTISRLEPEDFAVYYCQQYHSSPKLTFGGGTKVEIKR	binds	–	binds	–	binds	–	binds	–	no binding	no binding	–	–
25.6A (antibody, V domains shown) VH: QVQLQESGGGLVKAGGSLRLSCAASGFMFERYSLHWVRQTPGKGLEWVSSISSLSGSHINYADSVKGRFTISRDNAKNSLSLQMNSLRVEDTAIYYCARDRRSGSSPVPLDVWGQGTTVTVSS VL: DLPVLTQPASVSGSPGQSITISCTGTSSDVGAYNYVSWYQQHPGKAPKLIIYEVKIRPSGVSNRFSGSKSGNTASLTISGLQAEDEADYFCSSYSTNSPWVFGGGTKVTVLR	binds	–	binds	–	binds	–	binds	–	no binding	no binding	–	–
